Experimental data published in paper PMC10163288.
Some of the results follow.

B1: il10ra_site1_sap_18_mot_HHH_b2_07442_000000239_0001_40_54_H_._HHH_b1_05032_af2_0002_0000900036_0000001_0_0001 (protein)
chain: SSSSSEEEERVEELLEEAKRIDDREKLIRVLLEALQIALRAGNEELLQEIWRLFRRLIEEVSSSS
B2: il10ra_site1_normal_mot_HHH_b2_03220_af2_000000223_0001_23_40_H_._HHH_b1_08499_0001_0000100001_0000001_0 (protein)
chain: SSSSDVAERAWELSRRALELLAEGNPEEARELLEEAEELLEERGNRVLLFNVELLLRDLNSSSSS
B3: il10ra_site1_sap_14_mot_HHH_b2_05423_000000119_0001_22_38_H_._c1e259e16b19a3635eeea4582300f2e1_0001_0001_0000300028_0000001_0_0001 (protein)
chain: SSSSSSSQEELEVRVLLWFAKWANNPESARIMVKRAVEIAEKLGNEELLEEARELLEQLSSSSSS
B4: il10ra_site1_normal_mot_HHH_b1_00566_000000151_0001_22_39_H_._HHH_b2_05312_0001_0000100001_0000001_0_af2pred_dldesign_0_af2pred (protein)
chain: SSSSSRDELYEKLVEVYRLHRAGDPRWEELLAELEAAARASGDPYAVALVEAARRALLEESSSSS
B5: il10ra_site1_sap_10_mot_HHH_b2_02053_af2_000000006_0001_3_19_H_._HHH_b1_03339_af2_0001_0000200005_0000001_0_0001 (protein)
chain: SSSSDDRSEQVWELLRRALEAHKRGDEELVEELLEEAKRLAEEGNDRVMLLQVEFLEKRQSSSSS
B6: il10ra_site1_normal_mot_HHH_b2_02900_000000189_0001_39_52_H_._HHH_b2_05056_0001_0000300014_0000001_0 (protein)
chain: SSSSSEELERSVRRFLEAAEQLYEQGDPELARLAVRFALHLARSENNEELVEELEELLRRLSSSS
B7: il10ra_site1_sap_22_mot_HHH_b1_01082_af2_000000031_0001_3_19_H_._HHH_b2_00323_af2_0001_0000200008_0000001_0_0001 (protein)
chain: SSSDDAERLYELSREALELRANGNPEEAEKLLEEAEELAEELGSHTLLAAIELLLKDIRENSSSS
B8: il10ra_site1_sap_21_mot_HHH_b1_06256_000000091_0001_42_58_H_._HHH_b2_06752_0001_0000200015_0000002_0_0001 (protein)
chain: SSSSSSREEVEELLERAEEAAERGNPEEAAKLLAEAVRFAFQLQDPELLREVWEVVERVASSSSS
B9: il10ra_site1_normal_mot_HHH_b2_05532_000000217_0001_1_18_H_._HHH_b1_03058_0001_0000200028_0000001_0_af2pred_0001 (protein)
chain: SSSSSEEAEELYEEIKEELEELAKRGNEKRVQRLAIRAARELLELGNPELAKKLLKFAQELSSSS
B10: il10ra_site1_normal_mot_HHH_b2_07784_af2_000000103_0001_19_36_H_._HHH_b1_06064_af2_0001_0000100002_0000001_0 (protein)
chain: SSSSSYEEVKKLIEEIVELLRNGDREEAQKLIEELRELAEELNNPSLKFVVRLLEKELEDLSSSS
B11: il10ra_site1_normal_mot_HHH_b1_01827_000000263_0001_1_19_H_._HHH_b2_04613_af2_0001_0000400023_0000001_0 (protein)
chain: SSSSTTELFERVRELIERASELYREGNPEEAEKLLEEAERLAEEANNLLLRFSVRRALRALSSSS
B12: il10ra_site1_sap_11_mot_HHH_b1_05865_af2_000000211_0001_1_17_H_._HHH_b2_05611_0001_0000200014_0000001_0_0001_af2pred_0001 (protein)
chain: SSSSSDEKVELAIRFAKFLLEQGDPEAAEFIIRAAVELAERNGDEELLEEARELLEEIESSSSSS
B13: il10ra_site1_normal_mot_HHH_b1_04771_000000013_0001_40_56_H_._HHH_b2_02872_0001_0000100001_0000001_0 (protein)
chain: SSSSSSDEVLELSLEAFRLALRGDPEEARKVLEEALELAEERGDERLVEVIEDLLRALSSSSSSS
B14: il10ra_site1_normal_mot_HHH_b1_08411_af2_000000053_0001_1_20_H_._HHH_b2_02982_0001_0000100009_0000001_0 (protein)
chain: SSSSQEHFELTREAIERASQLFREGNREEAERLLEEVLEEVRELGNFALEFALEHLLRALSSSSS
B15: il10ra_site1_sap_20_mot_HHH_b2_06979_000000158_0001_42_57_H_._HHH_b2_07537_af2_0001_0000100009_0000001_0_0001 (protein)
chain: SSSSSDEVYEEVRRAIEEARELAKRDPEQAERVLEEALEVAEEANNWAARFSLEHLAKALSSSSS
B16: il10ra_site1_sap_21_mot_HHH_b2_03425_000000200_0001_22_39_H_._HHH_b2_08230_af2_0002_0000300021_0000001_0_0001 (protein)
chain: SSSSDEDLRKAVELARLASKARDPEELEELYEEAQELLEKVKDENARRFLRFVLADLEWLLSSSS
B17: il10ra_site1_sap_25_mot_HHH_b1_08133_000000195_0001_1_19_H_._HHH_b1_03607_0001_0000200023_0000001_0_0001_af2pred_0001 (protein)
chain: SSSSSEEVEELEEEARELIKRNDPEEVLKIIRRLARLAFRLNDPEISKIAIELAELLKKLDSSSS
B18: il10ra_site1_sap_18_mot_HHH_b1_04385_af2_000000166_0001_42_56_H_._HHH_b1_07343_0001_0000500026_0000001_0_0001 (protein)
chain: SSSSDEHVEELLREAEELLEEGNPEEALEVVFRATHFAIQAQDPELLRLVWELVRRVAELSSSSS
B19: il10ra_site1_sap_13_mot_HHH_b2_07144_000000289_0001_1_18_H_._HHH_b1_02223_af2_0001_0000400024_0000002_0_0001_af2pred_0001 (protein)
chain: SSSSDVEELRLRLVVELARAFQRGDPELAEEIVEEAEELLKEKNDPKAVELLRQAARALLSSSSS
B20: il10ra_site1_normal_mot_513c16ae44941e68898e0f7c259e5a28_0001_1_000000056_0001_35_50_H_._ems_p1-15H-GBL-16H-GABBL-16H_0222_0001_0001_0002_0001_0000400004_000000 … (protein)
chain: SSSSSSFEEVIREAQKLAEENGDREAADLLRAILRLAEQGALDERWAELSAELLEELLESSSSSS
B21: il10ra_site1_normal_mot_HHH_b2_07569_000000265_0001_38_56_H_._HHH_b1_00906_af2_0001_0000300009_0000001_0 (protein)
chain: SSSSDLEEEVEELLEELKKAKTQEEFAELALRVLRVALESQDPELVQEVWEVIKEVFKRLSSSSS
B22: il10ra_site1_normal_mot_HHH_b1_05672_af2_000000246_0001_1_19_H_._HHH_b2_02879_af2_0001_0000300011_0000002_0 (protein)
chain: SSSSDEEQRVAELLLRVVRLLYEGNPEEAEEVLEEARRLAEELGDEELRRYVEIAENFVRSSSSS
B23: il10ra_site1_normal_mot_8756ee2cf497b5429c717dfc0c0bcfd6_0001_000000186_0001_1_13_H_._HHH_b1_01230_0001_0000200009_0000001_0_1_af2pred_dldesign_0_af2pred (protein)
chain: SSSSSSQEVVDLLKEAAELIYEGKLEEAKEVLEKARELAEKLNDKVALAAIDYLLSQLEKSSSSS
B24: il10ra_site1_sap_24_mot_HHH_b2_05797_000000226_0001_1_19_H_._HHH_b1_08678_0001_0000400027_0000001_0_0001 (protein)
chain: SSSSNRSQEIYELLREAAELHHEGDPEEARKVLEEAEELAEEAGDMVMLMVIRWMLRRVNSSSSS

These binders were tested against il10ra, Q13651 (assay: yeast display titration).

Apparent Kd, inactive:
B1 no binding seen, B2 no binding seen, B3 no binding seen, B4 no binding seen, B5 no binding seen, B6 no binding seen, B7 no binding seen, B8 no binding seen, B9 no binding seen, B10 no binding seen, B11 no binding seen, B12 no binding seen, B13 no binding seen, B14 no binding seen, B15 no binding seen, B16 no binding seen, B17 > 233 nM, B18 no binding seen, B19 no binding seen, B20 no binding seen, B21 no binding seen, B22 no binding seen, B23 no binding seen, B24 no binding seen
